Experimental data: doi:10.1101/694695 (bioRxiv, 2019)
These are yes or no findings as the source states them, for the method shown. Some binding calls cover weakened binding; strength is not graded here. Tags and fused reporters may be left off the sequences shown.

Experiments:
[1] = biological target: P. aeruginosa ATCC27853 NucC (yeast two-hybrid fusion) (P. aeruginosa ATCC27853) (UniProt P0DTF8); assay: two-hybrid
[2] = biological target: T1, E. coli MS115-1 CdnC (yeast two-hybrid fusion) (E. coli MS115-1) (UniProt D7Y2H2); assay: two-hybrid
T1 sequence: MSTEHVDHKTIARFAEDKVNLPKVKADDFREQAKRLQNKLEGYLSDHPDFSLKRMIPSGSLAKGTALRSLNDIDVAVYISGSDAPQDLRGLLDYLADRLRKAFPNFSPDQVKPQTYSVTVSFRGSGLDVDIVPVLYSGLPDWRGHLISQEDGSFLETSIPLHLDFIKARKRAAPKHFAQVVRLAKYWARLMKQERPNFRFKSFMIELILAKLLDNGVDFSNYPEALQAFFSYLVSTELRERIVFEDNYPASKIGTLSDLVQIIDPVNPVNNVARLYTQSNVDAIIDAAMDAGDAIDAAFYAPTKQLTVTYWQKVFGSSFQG

[3] = biological target: T2, Ec CdnC:HORMA complex (yeast three-hybrid, both genes in pBridge) (E. coli MS115-1) (UniProt D7Y2H2+D7Y2H3); assay: yeast three-hybrid
T2 sequence 1: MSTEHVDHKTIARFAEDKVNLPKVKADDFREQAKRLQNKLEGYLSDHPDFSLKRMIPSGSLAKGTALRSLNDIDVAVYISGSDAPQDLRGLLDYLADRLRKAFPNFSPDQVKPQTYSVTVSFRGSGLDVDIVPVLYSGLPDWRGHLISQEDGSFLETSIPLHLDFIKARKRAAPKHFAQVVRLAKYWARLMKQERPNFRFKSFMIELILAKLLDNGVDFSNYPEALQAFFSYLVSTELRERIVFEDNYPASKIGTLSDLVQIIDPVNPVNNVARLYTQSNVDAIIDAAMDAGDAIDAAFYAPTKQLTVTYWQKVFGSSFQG
T2 sequence 2: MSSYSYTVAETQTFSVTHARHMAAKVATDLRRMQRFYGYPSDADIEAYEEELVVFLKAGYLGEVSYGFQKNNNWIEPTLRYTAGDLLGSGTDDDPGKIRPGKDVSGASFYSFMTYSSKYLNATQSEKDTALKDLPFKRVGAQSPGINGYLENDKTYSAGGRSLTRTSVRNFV

[4] = biological target: E. coli MS115-1 NucC (yeast two-hybrid fusion) (E. coli MS115-1) (UniProt D7Y2H5); assay: two-hybrid

B1: P. aeruginosa ATCC27853 NucC (yeast two-hybrid fusion) (enzyme, UniProt P0DTF8 1-241)
chain: MSQWSLSQLLSSLHEDIQQRLSVVRKTFGHPGTKGDASENVWIDMLDTYLPKRYQAAKAHVVDSLGNFSQQIDVVVFDRQYSPFIFTYENETIIPAESVYAVFEAKQTADAGLVAYAQEKVASVRRLHRTSLPIPHAGGTYPAKPLIPILGGLLTFESEWSPALGPSMDKALNANLTEGRLDIGCVAAHGHFFYDQASGAYSYTNENKPATAFLFKLIAQLQFSGTVPMIDVEAYGQWLTK
binding [1]: binds

B2: E. coli MS115-1 HORMA (yeast two-hybrid fusion) (protein, UniProt D7Y2H3 1-172)
chain: MSSYSYTVAETQTFSVTHARHMAAKVATDLRRMQRFYGYPSDADIEAYEEELVVFLKAGYLGEVSYGFQKNNNWIEPTLRYTAGDLLGSGTDDDPGKIRPGKDVSGASFYSFMTYSSKYLNATQSEKDTALKDLPFKRVGAQSPGINGYLENDKTYSAGGRSLTRTSVRNFV
binding [2]: binds

B3: Ec Pch2^EQ (E159Q; yeast three-hybrid fusion in pGADT7) (enzyme, UniProt D7Y2H4 1-311)
chain: MNVKPSLDELFERRINFPDFEPQERLARLVGLDEHKDRLSKILGLLVNPYGIQEWAKKYHPDARAAVDTVLRRPPLVVLAGDVGSGKTELAETIGDAVARQEDIDITLYPLSLATRGQGRVGEMTQLVSAAFDYTIEAADKLKNTNGKARGAVLLLIDQADALAQSRENAQMHHEDRAGVNAFIRGIDRIANQKLPAAVLMCTNRLKALDPAVQRRAAEILTFSRPNDEQRHYLLHSKLTGLGLNSTAVEELVRLTGPRDPNSPGFTFSDITQRLIPSIILAAYPYNAVSVHSALQVVNKMTPTPAFIDRQ
binding [3]: binds

B4: E. coli MS115-1 NucC (yeast two-hybrid fusion) (enzyme, UniProt D7Y2H5 1-241)
chain: MSDWSLSQLFASLHEDIQLRLGTARKAFQHPGAKGDASEGVWIEMLDTYLPKRYQAANAFVVDSLGNFSDQIDVVVFDRQYSPFIFKFNEQIIVPAESVYAVFEAKQSASADLVAYAQRKVASVRRLHRTSLPIPHAGGTYPAKPLIPILGGLLTFESDWSPALGMSFDKALNGDLSDGRLDMGCVASHGHFYFNNIDSKFNFEHGNKPATAFLFRLIAQLQFSGTVPMIDIDAYGKWLAN
binding [4]: binds
